Data as given in patent US20170020838A1, “TREATMENT FOR RESPIRATORY DISEASE” (MUCOKINETICA LIMITED, priority 2014, published 2017).
At least one structure is not confirmed: it was looked up by name or label, or the drawing left a doubt. Some results were stated once for a whole list of compounds, not compound by compound.

Experiments:
[1] = system: ciliary transport of pig airway mucus secretions on the ex vivo pig trachea; assay: Ciliary transport of mucus secretions (tracheal mucus velocity) on ex vivo normal pig trachea
Experimental: The lumen of each trachea was cleaned by gentle irrigation with BSS. Tracheas were opened longitudinally with scissors along the posterior aspect and mounted with the posterior aspect upwards in a moist air-tight box. An aliquot of pig airway mucus approximately 3 mm diameter was placed on the mucosal surface close to the distal end of each trachea. Tracheal mucus velocity (TMV mm/min) was measured by recording the distance moved, towards the laryngeal end of the trachea, in a given time. At the start of the study three measurements of TMV were made for each trachea to establish a baseline rate for the trachea. Solutions were then pipetted onto the luminal mucosal surface of tracheas for 10 min; BSS control tracheas (open circles; n=6); 10^−4 M amiloride in BSS (closed squares; n=6). Excess solution was then tipped off the mucosal surface and measurement of TMV repeated. TMV results at each time point are expressed as % of the baseline TMV, ciliary transport index (mean±SD).
(§1) Pig tracheas (from larynx to carina) from normal wild type animals were obtained from a local abattoir or Veterinary University. Transgenic CF piglets were produced as described by Klymiuk et al. 2012, and tracheas were obtained at a Veterinary University. The lumen of each trachea was cleaned by gentle irrigation with BSS. Tracheas were opened longitudinally with scissors along the posterior aspect and mounted with the posterior aspect upwards in a moist air-tight box. An aliquot of pig airway mucus approximately 3 mm diameter was placed on the mucosal surface close to the distal end of each trachea. Tracheal mucus velocity (TMV mm/min) was measured by recording the distance moved, towards the laryngeal end of the trachea, in a given time. At the start of a study three measurements of TMV were made for each trachea to establish a baseline rate for the trachea. Solutions were then pipetted onto the luminal mucosal surface of tracheas for 10 min. Then excess solution was tipped off the mucosal surface and measurement of TMV repeated. TMV results at each time point are expressed as % of the baseline TMV, ciliary transport index (mean±SD).

[2] = system: ciliary transport of pig airway mucus secretions on the ex vivo trachea of transgenic CF piglets; assay: Ciliary transport of mucus secretions on ex vivo trachea of transgenic CF piglets; design: increased ciliary transport observed from, day 1: dose or concentration left out as unconfirmed
Experimental: FIG. 13 Study of the effects of 6-amidino-2-napthyl 4-guanidinobenzoate in BSS, and a combination of hyperosmotic saline and 6-amidino-2-napthyl 4-guanidinobenzoate in BSS on ciliary transport of pig airway mucus secretions on the ex vivo trachea of transgenic CF piglets. Transgenic CF piglets were produced as described by Klymiuk et al. 2012, and tracheas obtained at a Veterinary University. Study methods were otherwise as described in FIG. 10. Ciliary transport index (mean) was measured over two days with a second treatment period at the start of the second day.
as §1

## OC[C@@H](O)[C@@H](O)[C@H](O)[C@H](O)CO [hyperosmotic mannitol, mannitol]
[1]; Class 2
  return to control transport rate (class summary): ≤ 4 h

## N=C(N)Nc1ccc(C(=O)Oc2ccc3cc(C(=N)N)ccc3c2)cc1 [6-amidino-2-napthyl 4-guanidinobenzoate]
[2]; Rx alone or Rx and 50 mM-NaCl
  increased ciliary transport observed through to, day 1: 4 h 40 min h min
  time of maximum increased speed following treatment, day 1: 3 h 10 min h min
[2]; in BSS, 10 min
  increased ciliary transport observed from, day 1: 1 h 10 min h min
[2]; time after second treatment
  increased ciliary transport observed to, day 2: 4 h 40 min h min
  time of maximum speed of ciliary transport following treatment, day 2: 3 h 10 min h min
[1]; 10^−5M in BSS applied 10 min
  first significant increase in ciliary transport speed compared to BSS controls: 1 h 10 min h min
[1]; +50 mM-NaCl, 10^−5M Rx, 100 mosM-mannitol, 100 mosM-sodium gluconate
  time of maximum transport speed following initiation of treatment: 4 h 10 min h min
[1]; applied 10 min in BSS, for Rx and combinations the last point is the end of the study
  stimulated ciliary transport through to (last time point): 6 h 10 min h min
[1]; dose range 10^−9 M to 10^−5 M, measured for 4 h
  time of peak increase in ciliary transport speed, dose-response study: 3 h 40 min h min
